The supplement of paper PMC10849652
Some of the results follow. Residues, ends and D or L forms follow the SMILES beside them. *: point of attachment. Cbz = O=C(OCc1ccccc1)*

The chains behind the UniProt entries cited, without tags or fusion partners. Where a name states a change or a piece, a line headed by the entry shows the natural chain unless it says otherwise.
UniProt Q9HAN9, whole entry, looked up: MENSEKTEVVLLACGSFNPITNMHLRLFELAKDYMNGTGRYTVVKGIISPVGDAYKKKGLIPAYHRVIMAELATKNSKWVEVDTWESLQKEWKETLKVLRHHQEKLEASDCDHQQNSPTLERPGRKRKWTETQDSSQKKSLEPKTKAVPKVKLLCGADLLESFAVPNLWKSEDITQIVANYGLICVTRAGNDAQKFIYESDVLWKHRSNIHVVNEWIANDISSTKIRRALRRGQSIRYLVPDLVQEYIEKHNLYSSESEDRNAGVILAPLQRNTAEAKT
UniProt O75607: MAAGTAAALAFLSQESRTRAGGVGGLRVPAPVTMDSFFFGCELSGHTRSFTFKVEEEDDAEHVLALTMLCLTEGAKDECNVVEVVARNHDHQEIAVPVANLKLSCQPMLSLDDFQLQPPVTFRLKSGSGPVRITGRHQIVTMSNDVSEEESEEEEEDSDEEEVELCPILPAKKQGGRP
UniProt P55786: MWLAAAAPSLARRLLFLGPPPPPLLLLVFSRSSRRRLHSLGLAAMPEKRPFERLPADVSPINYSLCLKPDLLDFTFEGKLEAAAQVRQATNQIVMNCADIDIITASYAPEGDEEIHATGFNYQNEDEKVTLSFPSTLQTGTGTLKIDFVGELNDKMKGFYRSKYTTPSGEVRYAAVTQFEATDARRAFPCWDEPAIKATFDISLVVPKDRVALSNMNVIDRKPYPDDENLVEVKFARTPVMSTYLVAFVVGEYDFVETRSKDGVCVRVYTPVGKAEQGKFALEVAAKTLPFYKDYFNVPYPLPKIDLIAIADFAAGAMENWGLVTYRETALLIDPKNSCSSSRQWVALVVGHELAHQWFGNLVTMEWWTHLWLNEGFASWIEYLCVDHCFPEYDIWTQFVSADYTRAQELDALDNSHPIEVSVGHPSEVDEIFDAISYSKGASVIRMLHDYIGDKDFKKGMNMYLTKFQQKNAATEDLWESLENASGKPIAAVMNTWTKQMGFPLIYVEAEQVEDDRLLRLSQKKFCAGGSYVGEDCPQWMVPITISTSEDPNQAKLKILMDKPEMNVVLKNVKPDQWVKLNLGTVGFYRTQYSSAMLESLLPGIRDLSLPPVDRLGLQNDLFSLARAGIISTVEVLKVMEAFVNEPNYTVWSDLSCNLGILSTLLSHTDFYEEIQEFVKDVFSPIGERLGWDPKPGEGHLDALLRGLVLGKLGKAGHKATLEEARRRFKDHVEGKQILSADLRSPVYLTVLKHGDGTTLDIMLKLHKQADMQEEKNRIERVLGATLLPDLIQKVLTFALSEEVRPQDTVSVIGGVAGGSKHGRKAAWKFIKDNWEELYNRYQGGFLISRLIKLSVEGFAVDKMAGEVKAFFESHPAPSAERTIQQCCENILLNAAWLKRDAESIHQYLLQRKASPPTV
UniProt Q00653: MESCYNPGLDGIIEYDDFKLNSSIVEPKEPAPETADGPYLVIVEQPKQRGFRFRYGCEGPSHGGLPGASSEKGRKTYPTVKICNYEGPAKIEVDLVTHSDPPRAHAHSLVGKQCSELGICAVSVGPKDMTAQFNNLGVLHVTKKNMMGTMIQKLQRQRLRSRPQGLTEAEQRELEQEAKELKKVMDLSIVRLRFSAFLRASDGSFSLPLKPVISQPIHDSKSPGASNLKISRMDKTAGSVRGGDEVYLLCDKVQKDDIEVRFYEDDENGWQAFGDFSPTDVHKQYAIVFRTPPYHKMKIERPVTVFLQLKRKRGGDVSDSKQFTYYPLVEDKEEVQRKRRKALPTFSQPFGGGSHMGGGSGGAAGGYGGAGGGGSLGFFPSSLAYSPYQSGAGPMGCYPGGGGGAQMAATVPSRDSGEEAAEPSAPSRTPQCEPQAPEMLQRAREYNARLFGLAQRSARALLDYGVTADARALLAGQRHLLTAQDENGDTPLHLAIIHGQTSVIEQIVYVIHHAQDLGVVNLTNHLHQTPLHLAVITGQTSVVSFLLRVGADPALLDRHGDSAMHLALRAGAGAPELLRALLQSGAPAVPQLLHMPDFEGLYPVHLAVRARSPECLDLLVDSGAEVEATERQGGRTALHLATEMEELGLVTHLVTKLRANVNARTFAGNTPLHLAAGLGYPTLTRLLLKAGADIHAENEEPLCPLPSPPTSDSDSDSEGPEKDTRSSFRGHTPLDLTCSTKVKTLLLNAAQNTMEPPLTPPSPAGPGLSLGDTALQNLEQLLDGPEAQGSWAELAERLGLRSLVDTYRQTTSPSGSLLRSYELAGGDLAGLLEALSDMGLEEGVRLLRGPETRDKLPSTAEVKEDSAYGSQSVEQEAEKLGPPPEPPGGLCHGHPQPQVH
UniProt O15118: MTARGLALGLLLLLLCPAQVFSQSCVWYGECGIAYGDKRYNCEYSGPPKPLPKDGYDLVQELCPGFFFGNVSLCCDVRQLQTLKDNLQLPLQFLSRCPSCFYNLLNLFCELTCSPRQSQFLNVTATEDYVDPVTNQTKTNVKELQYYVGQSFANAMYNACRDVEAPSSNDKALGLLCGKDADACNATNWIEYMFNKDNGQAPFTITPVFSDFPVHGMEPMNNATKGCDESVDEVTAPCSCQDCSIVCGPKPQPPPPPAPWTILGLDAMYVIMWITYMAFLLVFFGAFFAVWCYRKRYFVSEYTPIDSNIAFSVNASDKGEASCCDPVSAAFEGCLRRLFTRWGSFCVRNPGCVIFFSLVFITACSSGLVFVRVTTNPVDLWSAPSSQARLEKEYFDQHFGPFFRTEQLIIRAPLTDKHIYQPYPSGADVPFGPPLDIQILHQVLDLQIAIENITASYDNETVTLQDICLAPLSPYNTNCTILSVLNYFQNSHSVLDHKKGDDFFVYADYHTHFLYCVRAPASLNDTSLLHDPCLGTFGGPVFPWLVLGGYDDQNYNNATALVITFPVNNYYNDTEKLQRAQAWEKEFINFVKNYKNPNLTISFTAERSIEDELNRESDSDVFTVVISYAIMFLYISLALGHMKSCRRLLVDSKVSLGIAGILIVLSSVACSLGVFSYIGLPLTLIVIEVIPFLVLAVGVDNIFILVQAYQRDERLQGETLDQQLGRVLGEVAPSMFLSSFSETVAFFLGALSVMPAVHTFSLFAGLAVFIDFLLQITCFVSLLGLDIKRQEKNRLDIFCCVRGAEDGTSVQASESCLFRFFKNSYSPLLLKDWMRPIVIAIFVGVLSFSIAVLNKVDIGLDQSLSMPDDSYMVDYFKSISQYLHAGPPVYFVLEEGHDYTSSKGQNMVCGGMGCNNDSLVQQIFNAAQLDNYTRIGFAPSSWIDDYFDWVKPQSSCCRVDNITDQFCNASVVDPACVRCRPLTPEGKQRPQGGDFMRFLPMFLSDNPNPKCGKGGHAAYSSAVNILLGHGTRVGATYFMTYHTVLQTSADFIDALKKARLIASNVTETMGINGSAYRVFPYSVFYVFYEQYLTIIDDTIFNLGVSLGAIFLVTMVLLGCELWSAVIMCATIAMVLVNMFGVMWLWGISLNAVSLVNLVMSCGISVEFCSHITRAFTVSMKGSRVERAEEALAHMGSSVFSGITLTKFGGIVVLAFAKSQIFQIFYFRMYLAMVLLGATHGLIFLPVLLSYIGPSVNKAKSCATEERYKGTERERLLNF
UniProt Q6KC79: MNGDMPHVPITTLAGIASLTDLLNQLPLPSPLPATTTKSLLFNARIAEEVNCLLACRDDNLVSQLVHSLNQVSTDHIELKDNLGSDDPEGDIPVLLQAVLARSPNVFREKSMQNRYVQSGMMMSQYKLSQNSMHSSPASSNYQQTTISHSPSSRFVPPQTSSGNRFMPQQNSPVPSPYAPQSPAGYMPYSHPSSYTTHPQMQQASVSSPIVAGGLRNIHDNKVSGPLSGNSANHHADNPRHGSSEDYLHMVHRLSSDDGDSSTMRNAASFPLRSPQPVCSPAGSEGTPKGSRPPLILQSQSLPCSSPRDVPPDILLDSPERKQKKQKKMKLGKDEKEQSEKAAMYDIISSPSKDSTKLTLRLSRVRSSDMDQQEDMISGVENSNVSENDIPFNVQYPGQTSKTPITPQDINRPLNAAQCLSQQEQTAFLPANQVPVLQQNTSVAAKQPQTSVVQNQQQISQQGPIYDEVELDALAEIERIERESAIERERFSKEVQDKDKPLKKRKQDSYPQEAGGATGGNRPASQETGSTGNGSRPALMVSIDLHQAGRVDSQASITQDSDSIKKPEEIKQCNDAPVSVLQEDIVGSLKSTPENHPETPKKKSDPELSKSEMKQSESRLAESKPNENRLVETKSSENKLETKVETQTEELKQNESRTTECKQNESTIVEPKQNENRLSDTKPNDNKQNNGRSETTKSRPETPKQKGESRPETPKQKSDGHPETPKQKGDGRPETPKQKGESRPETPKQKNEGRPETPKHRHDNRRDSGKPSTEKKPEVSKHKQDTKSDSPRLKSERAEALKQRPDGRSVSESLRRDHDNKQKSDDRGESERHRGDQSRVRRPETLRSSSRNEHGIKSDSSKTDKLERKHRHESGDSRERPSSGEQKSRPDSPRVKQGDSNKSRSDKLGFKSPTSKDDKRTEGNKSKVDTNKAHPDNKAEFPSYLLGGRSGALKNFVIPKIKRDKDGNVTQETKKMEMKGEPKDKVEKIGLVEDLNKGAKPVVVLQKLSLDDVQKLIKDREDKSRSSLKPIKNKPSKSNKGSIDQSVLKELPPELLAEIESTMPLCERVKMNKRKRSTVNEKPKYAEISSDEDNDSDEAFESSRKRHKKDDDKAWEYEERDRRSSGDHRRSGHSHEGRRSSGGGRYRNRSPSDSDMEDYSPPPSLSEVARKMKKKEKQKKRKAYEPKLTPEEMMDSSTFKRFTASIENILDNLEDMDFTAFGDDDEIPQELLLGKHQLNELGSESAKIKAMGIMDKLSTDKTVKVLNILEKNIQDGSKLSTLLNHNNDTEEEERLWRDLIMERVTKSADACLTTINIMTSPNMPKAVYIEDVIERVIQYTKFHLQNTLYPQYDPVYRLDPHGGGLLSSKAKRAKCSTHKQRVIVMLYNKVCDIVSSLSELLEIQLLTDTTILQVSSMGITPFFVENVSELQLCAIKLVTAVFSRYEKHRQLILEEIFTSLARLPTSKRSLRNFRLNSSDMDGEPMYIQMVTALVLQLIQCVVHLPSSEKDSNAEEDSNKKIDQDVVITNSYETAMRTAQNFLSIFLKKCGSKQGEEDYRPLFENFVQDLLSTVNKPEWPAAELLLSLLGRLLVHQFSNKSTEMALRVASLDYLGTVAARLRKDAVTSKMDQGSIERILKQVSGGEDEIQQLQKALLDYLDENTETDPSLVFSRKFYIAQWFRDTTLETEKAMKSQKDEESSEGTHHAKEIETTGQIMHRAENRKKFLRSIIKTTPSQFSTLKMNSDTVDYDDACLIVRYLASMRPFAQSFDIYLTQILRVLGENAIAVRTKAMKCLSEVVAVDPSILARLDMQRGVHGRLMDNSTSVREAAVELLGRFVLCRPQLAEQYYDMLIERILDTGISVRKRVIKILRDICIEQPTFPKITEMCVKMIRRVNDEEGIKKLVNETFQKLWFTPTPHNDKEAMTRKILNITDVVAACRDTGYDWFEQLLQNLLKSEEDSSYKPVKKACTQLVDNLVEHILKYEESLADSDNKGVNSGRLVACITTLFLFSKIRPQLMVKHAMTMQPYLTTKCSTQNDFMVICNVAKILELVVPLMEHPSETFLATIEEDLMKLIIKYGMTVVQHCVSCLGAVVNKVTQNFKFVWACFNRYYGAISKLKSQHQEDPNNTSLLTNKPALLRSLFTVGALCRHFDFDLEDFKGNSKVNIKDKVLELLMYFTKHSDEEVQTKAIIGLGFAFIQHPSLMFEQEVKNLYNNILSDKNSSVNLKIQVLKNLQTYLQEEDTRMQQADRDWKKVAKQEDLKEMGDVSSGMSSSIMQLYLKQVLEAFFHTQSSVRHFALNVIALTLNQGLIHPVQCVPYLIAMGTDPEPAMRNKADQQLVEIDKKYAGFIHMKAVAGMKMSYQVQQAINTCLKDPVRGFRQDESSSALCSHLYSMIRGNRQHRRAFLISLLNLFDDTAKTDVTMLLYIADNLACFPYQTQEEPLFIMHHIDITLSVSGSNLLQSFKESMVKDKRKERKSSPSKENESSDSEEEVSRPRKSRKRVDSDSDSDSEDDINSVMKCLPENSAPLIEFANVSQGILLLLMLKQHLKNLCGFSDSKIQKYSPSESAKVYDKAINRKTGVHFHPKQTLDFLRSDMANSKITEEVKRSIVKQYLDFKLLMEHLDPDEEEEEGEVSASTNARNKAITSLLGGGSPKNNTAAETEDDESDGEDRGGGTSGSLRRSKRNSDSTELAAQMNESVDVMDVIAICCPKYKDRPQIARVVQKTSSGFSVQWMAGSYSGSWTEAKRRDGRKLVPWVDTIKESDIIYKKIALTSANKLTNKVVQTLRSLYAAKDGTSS

How the values were obtained:
Assay in all cases: log2 fold change, soluble protein after heating vs DMSO (PISA); higher = thermal stabilisation; K562 cells, 10 uM, 30 min; active = over 0.2 and 3.5 SD of the protein, either way, in both replicates (recomputed)
IRAK-1-4 Inhibitor I = compound: C1COCCN1CCN2C3=CC=CC=C3N=C2NC(=O)C4=CC(=CC=C4)[N+](=O)[O-] [IRAK-1-4 Inhibitor I]
Method in brief: (§1)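 K562 cells at 2×10^6 cells/mL were treated with 10 μM compound for 30 min. Aliquots were heated for 3 min across 48°C-58°C, pooled, and extracted in PBS with 0.5% NP-40 at 4°C; soluble protein was the supernatant after 21,000xg for 90 min. Soluble protein was quantified by TMTpro 16plex LC-MS/MS with channel sums equalised, and reported as log2 fold change in thermal stability against DMSO controls, with values from duplicates.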

ibrutinib = compound: C=CC(=O)N1CCC[C@@H](n2nc(-c3ccc(Oc4ccccc4)cc3)c3c(N)ncnc32)C1 [ibrutinib]
Method in brief: as §1

[1] = compound: CC(=O)c1cnc2ccc(-c3cc(Cl)c(O)c(Cl)c3)nc2c1N[C@H]1CC[C@H](CN(C)C)CC1
Method in brief: as §1

ralimetinib = compound: CC(C)(C)Cn1c(N)nc2ccc(-c3[nH]c(C(C)(C)C)nc3-c3ccc(F)cc3)nc21 [ralimetinib]
Method in brief: as §1

[2] = compound: CC(C)(O)CC(=O)NCCn1ccc2ncnc(Nc3ccc(Oc4cccc(C(F)(F)F)c4)c(Cl)c3)c21
Method in brief: as §1

[3] = compound: CC(C)C1=C2N=C(C=C(N2N=C1)NCC3=CC=CC=C3)NCCCCCCN
Method in brief: as §1

[4] = compound: CC(C)C[C@@H](C=O)NC(=O)[C@H](CC(C)C)NC(=O)[C@H](CC(C)C)NC(=O)OCc1ccccc1
Method in brief: as §1

pinometostat = compound: CC(C)N(C[C@H]1O[C@@H](n2cnc3c(N)ncnc32)[C@H](O)[C@@H]1O)[C@H]1C[C@@H](CCc2nc3cc(C(C)(C)C)ccc3[nH]2)C1 [pinometostat]
Method in brief: as §1

[5] = compound: CC1=C(C2=C(C=C1)C(=O)C3=CC=CC=C3N2CCCN)C
Method in brief: as §1

[6] = compound: CC1=C(C=C(C=C1)NC(=O)C2=CC(=CC=C2)C(C)(C)C#N)NC3=CC4=C(C=C3)N=CN(C4=O)C
Method in brief: as §1

[7] = compound: CC1=C(C=C(C=C1)NC(=O)C2=CC(=CC=C2)N(C)C)NC(=O)C3=CC=C(C=C3)O
Method in brief: as §1

[8] = compound: CC1=CC=C(C=C1)SC2=C3C=C(SC3=CN=C2)C(=O)N
Method in brief: as §1

[9] = compound: CC1=NC(=CC=C1)C2=C(N=C(N2)C(C)(C)C)C3=CC4=NC=CN=C4C=C3
Method in brief: as §1

Nexturastat A = compound: CCCCN(Cc1ccc(C(=O)NO)cc1)C(=O)Nc1ccccc1 [Nexturastat A]
Method in brief: as §1

vemurafenib = compound: CCCS(=O)(=O)Nc1ccc(F)c(C(=O)c2c[nH]c3ncc(-c4ccc(Cl)cc4)cc23)c1F [vemurafenib]
Method in brief: as §1

[10] = compound: CCCS(=O)(=O)Nc1ccc(F)c(C(=O)c2c[nH]c3ncc(Cl)cc23)c1F
Method in brief: as §1

[11] = compound: CCCc1cc(C)[nH]c(=O)c1CNC(=O)c1cc(-c2ccnc(N3CCN(C)CC3)c2)cc2c1cnn2C(C)C
Method in brief: as §1

givinostat = compound: CCN(CC)Cc1ccc2cc(COC(=O)Nc3ccc(C(=O)NO)cc3)ccc2c1 [givinostat]
Method in brief: as §1

barasertib = compound: CCN(CCCOc1ccc2c(Nc3cc(CC(=O)Nc4cccc(F)c4)[nH]n3)ncnc2c1)CCOP(=O)(O)O [barasertib]
Method in brief: as §1

[12] = compound: CC1=C(C(CC(=O)N1)C2=CC=C(C=C2)C(F)(F)F)C(=O)NC3=C(C=C4C(=C3)C=NN4)F
Method in brief: as §1

Measured: log2 fold change

NMNAT1 (UniProt Q9HAN9)
active: [5] -0.674
inactive: IRAK-1-4 Inhibitor I -0.007 | ibrutinib 0.073 | [1] 0.05 | ralimetinib 0.18 | [2] 0.13 | [3] 0.093 | [4] 0.168 | pinometostat 0.429 | [6] -0.079 | [7] 0.006 | [8] -0.09 | [9] -0.196 | Nexturastat A 0.132 | vemurafenib -0.162 | [10] -0.139 | [11] 0.178 | givinostat 0.042 | barasertib -0.064

NIPA1 (UniProt Q7RTP0)
inactive: IRAK-1-4 Inhibitor I 0.109 | ibrutinib 0.084 | [1] -0.04 | ralimetinib -0.03 | [3] 0.021 | [4] -0.102 | pinometostat -0.156 | [12] 0.044 | [5] -0.045 | [6] 0.048 | [7] -0.055 | [8] -0.014 | [9] 0 | vemurafenib 0.019 | [10] -0.072 | [11] 0.083 | givinostat 0.088 | barasertib 0.048

NELFA (UniProt Q9H3P2)
inactive: IRAK-1-4 Inhibitor I -0.065 | ibrutinib 0 | [1] -0.357 | ralimetinib 0.02 | [2] -0.286 | [3] -0.054 | [4] -0.043 | pinometostat -0.02 | [5] 0.252 | [6] -0.02 | [7] -0.124 | [8] 0.011 | [9] 0.092 | Nexturastat A -0.104 | vemurafenib 0.06 | [10] 0.097 | [11] 0.024 | givinostat 0.079 | barasertib 0.212

NPM3 (UniProt O75607)
active: [5] -0.521
inactive: IRAK-1-4 Inhibitor I -0.057 | ibrutinib -0.016 | [1] -0.004 | ralimetinib 0.045 | [3] 0.078 | [4] 0.053 | pinometostat 0.052 | [6] 0.003 | [7] -0.004 | [8] -0.005 | [9] -0.056 | vemurafenib -0.04 | [10] 0.041 | [11] -0.015 | givinostat 0.019 | barasertib -0.083

NFATC4 isoform 2 (UniProt Q14934)
inactive: IRAK-1-4 Inhibitor I -0.061 | ibrutinib -0.033 | [1] -0.059 | ralimetinib -0.18 | [2] -0.104 | [4] -0.238 | pinometostat 0.065 | [5] 0.082 | [6] 0.053 | [7] -0.127 | [8] -0.607 | [9] -0.064 | Nexturastat A -0.176 | vemurafenib -0.007 | [10] -0.238 | [11] 0.238 | barasertib 0.084

NIPSNAP3B (UniProt Q9BS92)
inactive: IRAK-1-4 Inhibitor I 0.048 | ibrutinib 0.082 | [1] 0.026 | [3] 0.045 | pinometostat 0.056 | [5] 0.049 | [6] -0.133 | [8] 0.049 | [9] 0.023 | vemurafenib 0.065 | [10] 0.016 | [11] -0.001 | givinostat -0.088 | barasertib 0.016

NPEPPS (UniProt P55786)
active: [3] 0.254
inactive: IRAK-1-4 Inhibitor I 0.039 | ibrutinib 0 | [1] -0.013 | ralimetinib 0.021 | [2] -0.117 | [4] -0.035 | pinometostat -0.026 | [5] 0.045 | [6] 0.079 | [7] -0.012 | [8] -0.004 | [9] 0.018 | Nexturastat A -0.017 | vemurafenib -0.022 | [10] 0.003 | [11] 0.009 | givinostat -0.02 | barasertib 0.008

NFKB2 (UniProt Q00653)
inactive: IRAK-1-4 Inhibitor I -0.206 | ibrutinib 0 | [1] 0.022 | ralimetinib 0.151 | [2] 0.041 | [4] 0.129 | pinometostat 0.104 | [12] 0.071 | [5] 0.139 | [7] -0.003 | [8] -0.052 | [9] 0.018 | Nexturastat A 0.001 | [10] -0.002 | [11] -0.165 | barasertib 0.059

NPC1 (UniProt O15118)
inactive: IRAK-1-4 Inhibitor I 0.014 | ibrutinib 0.03 | [1] 0.031 | ralimetinib -0.041 | [2] 0.028 | [3] -0.184 | [4] 0.006 | pinometostat -0.055 | [5] -0.147 | [6] -0.018 | [7] 0.01 | [8] 0.006 | [9] 0.066 | Nexturastat A -0.041 | vemurafenib 0.007 | [10] -0.019 | [11] -0.028 | givinostat -0.051 | barasertib 0.02

NIPBL (UniProt Q6KC79)
inactive: IRAK-1-4 Inhibitor I 0.016 | ibrutinib -0.229 | [1] 0.158 | [2] 0.091 | [3] -0.291 | pinometostat 0.108 | [5] 0.166 | [8] -0.012 | [9] 0 | Nexturastat A 0.01 | [10] 0.074 | givinostat 0.081 | barasertib 0.034
